Measurements published in paper PMC7140530.
No constants are given. Whether binding was seen depends on the method and setting. Binding seen in cells or lysates may run through a third protein. Some entries that bind do so weakly or less than the wild type. For some assays here: Sequences can lack the tags named with a protein. Blank lines part the entries; values can stand above or below the molecule they belong to.

Protein sequences, listed by entry. Tags and fused reporters are not part of them.
UniProt Q9QX29: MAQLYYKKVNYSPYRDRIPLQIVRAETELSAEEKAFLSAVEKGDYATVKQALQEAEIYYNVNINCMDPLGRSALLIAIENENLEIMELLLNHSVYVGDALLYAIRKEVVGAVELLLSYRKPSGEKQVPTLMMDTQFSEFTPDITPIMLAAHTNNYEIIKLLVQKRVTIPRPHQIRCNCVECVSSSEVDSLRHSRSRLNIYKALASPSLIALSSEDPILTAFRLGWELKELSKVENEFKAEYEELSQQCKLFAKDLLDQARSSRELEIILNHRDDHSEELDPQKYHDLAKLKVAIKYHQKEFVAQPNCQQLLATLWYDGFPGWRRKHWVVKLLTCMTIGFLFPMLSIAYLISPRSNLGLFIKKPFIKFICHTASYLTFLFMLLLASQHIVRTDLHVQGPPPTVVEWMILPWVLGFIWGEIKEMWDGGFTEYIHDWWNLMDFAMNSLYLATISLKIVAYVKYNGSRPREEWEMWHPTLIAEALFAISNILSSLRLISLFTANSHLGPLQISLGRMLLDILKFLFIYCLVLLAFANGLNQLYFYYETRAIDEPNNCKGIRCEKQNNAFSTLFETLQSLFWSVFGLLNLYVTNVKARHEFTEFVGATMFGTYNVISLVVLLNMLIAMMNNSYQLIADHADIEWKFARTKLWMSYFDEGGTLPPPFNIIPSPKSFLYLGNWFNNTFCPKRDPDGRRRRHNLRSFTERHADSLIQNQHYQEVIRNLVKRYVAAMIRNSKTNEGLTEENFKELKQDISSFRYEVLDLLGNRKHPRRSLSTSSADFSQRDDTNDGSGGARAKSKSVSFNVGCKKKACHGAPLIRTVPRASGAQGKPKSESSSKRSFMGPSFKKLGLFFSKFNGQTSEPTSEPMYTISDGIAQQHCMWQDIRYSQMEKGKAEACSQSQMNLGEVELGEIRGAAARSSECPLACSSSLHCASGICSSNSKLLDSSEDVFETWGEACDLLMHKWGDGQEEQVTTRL
UniProt Q9QUQ5: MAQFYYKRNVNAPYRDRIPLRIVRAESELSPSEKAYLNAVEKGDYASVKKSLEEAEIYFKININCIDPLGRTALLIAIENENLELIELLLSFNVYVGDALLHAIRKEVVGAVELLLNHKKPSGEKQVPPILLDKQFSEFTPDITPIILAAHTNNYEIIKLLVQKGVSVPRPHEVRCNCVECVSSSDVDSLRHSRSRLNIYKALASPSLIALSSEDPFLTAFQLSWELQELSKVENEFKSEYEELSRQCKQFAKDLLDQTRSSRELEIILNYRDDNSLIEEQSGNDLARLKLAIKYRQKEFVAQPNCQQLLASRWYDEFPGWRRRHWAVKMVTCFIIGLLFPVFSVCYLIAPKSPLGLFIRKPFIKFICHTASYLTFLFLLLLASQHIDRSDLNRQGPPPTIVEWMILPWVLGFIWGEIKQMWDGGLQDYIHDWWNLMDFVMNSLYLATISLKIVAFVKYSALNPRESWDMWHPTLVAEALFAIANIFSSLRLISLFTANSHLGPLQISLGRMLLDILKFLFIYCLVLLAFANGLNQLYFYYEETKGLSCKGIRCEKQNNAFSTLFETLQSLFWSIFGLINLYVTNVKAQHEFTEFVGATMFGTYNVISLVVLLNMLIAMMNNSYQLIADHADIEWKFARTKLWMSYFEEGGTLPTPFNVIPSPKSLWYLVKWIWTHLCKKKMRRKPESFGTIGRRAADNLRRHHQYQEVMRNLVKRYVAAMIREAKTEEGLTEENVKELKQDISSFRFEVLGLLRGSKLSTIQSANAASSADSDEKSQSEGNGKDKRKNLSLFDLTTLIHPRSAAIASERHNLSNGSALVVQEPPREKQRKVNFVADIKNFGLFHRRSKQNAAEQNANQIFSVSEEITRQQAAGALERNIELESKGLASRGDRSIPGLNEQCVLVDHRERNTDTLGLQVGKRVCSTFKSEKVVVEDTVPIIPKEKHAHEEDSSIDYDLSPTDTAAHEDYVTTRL
UniProt Q61056: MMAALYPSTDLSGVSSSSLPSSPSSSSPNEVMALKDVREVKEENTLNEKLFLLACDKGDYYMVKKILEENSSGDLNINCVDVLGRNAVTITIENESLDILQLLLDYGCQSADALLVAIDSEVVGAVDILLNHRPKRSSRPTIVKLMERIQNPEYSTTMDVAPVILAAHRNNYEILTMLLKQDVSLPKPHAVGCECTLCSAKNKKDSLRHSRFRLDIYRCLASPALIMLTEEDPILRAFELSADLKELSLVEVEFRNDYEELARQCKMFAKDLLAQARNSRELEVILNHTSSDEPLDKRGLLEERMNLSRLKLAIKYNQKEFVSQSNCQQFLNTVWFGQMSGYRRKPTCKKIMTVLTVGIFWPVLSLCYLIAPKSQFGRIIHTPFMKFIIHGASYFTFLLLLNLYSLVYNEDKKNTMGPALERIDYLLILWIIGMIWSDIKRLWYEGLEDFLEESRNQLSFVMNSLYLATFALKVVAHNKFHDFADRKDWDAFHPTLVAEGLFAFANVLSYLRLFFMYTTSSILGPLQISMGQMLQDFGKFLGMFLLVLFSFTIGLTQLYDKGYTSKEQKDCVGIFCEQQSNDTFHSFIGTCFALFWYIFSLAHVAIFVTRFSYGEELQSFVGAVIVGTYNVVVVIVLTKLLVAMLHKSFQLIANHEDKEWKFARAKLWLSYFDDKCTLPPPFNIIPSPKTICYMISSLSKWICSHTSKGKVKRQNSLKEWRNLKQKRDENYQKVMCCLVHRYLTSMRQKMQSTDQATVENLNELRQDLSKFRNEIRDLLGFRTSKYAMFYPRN

Experiments:
[1] = molecular target: T1, PLSCR1 (endogenous, mouse cortical neurons) (mouse (endogenous in cortical neurons)) (UniProt Q9JJ00); assay: co-IP; lysates of freshly isolated mouse cortical neurons, endogenous proteins; 1% Nonidet P-40, 150 mmol/L NaCl, 20 mmol/L Tris-HCl pH 8.0; anti-PLSCR1 or anti-TRPC5 overnight at 4 C, protein A magnetic beads; immunoblot; preimmune IgG as control
T1 sequence: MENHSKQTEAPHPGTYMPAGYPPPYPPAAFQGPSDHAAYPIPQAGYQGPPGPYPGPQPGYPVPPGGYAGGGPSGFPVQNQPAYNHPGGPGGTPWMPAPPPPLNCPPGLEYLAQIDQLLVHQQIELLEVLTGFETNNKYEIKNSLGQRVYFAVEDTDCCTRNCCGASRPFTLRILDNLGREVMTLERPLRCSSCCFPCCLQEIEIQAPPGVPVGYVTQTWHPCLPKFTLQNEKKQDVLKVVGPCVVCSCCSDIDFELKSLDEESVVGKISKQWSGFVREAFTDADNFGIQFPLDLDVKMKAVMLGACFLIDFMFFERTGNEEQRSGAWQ

[2] = molecular target: T1, PLSCR1 (endogenous, mouse cortical neurons) (mouse (endogenous in cortical neurons)); assay: proximity ligation; in situ PLA (Duolink) on fixed, permeabilized, freshly isolated C57 mouse cerebral cortical neurons; goat anti-PLSCR1 and rabbit anti-TRPC5 (1:40); control with anti-TRPC5 antibody alone
[3] = molecular target: T2, PLSCR1-EGFP (phospholipid scramblase 1, EGFP tagged at the carboxyl terminus) (human) (UniProt O15162); assay: co-IP; HEK293 cells co-transfected; lysis in 1% Nonidet P-40, 150 mmol/L NaCl, 20 mmol/L Tris-HCl pH 8.0; 800 ug protein with 3 ug anti-mCherry or anti-EGFP overnight at 4 C, protein A magnetic beads; immunoblot; preimmune IgG as control
T2 sequence: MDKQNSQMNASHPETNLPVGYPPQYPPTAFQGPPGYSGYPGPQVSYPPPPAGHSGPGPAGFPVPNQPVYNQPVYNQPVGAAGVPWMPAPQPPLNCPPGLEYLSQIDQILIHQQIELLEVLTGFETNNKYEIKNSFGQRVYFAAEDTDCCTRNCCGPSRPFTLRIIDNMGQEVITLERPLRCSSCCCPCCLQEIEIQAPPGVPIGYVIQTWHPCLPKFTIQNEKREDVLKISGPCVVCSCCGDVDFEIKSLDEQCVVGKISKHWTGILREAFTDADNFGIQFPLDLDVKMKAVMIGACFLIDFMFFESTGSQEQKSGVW

[4] = molecular target: T2, PLSCR1-EGFP (phospholipid scramblase 1, EGFP tagged at the carboxyl terminus) (human); assay: FRET or BRET; sensitized emission FRET in HEK293 cells co-transfected with EGFP-tagged (donor) and mCherry-tagged (acceptor) constructs; Leica confocal
[5] = molecular target: TRPC5 (endogenous, mouse cortical neurons) (mouse (endogenous in cortical neurons)) (UniProt Q9QX29); assay: co-IP; lysates of freshly isolated mouse cortical neurons, endogenous proteins; 1% Nonidet P-40, 150 mmol/L NaCl, 20 mmol/L Tris-HCl pH 8.0; anti-PLSCR1 or anti-TRPC5 overnight at 4 C, protein A magnetic beads; immunoblot; preimmune IgG as control
[6] = molecular target: TRPC5-mCherry (transient receptor potential canonical 5, mCherry tagged at the carboxyl terminus) (mouse) (UniProt Q9QX29); assay: co-IP; HEK293 cells co-transfected; lysis in 1% Nonidet P-40, 150 mmol/L NaCl, 20 mmol/L Tris-HCl pH 8.0; 800 ug protein with 3 ug anti-mCherry or anti-EGFP overnight at 4 C, protein A magnetic beads; immunoblot; preimmune IgG as control

Molecule: TRPC4 (endogenous, mouse cortical neurons) (from UniProt Q9QUQ5 1-974)
binding [1]: binds

B1: PLSCR1 (endogenous, mouse cortical neurons) (protein, UniProt Q9JJ00 1-328)
chain: MENHSKQTEAPHPGTYMPAGYPPPYPPAAFQGPSDHAAYPIPQAGYQGPPGPYPGPQPGYPVPPGGYAGGGPSGFPVQNQPAYNHPGGPGGTPWMPAPPPPLNCPPGLEYLAQIDQLLVHQQIELLEVLTGFETNNKYEIKNSLGQRVYFAVEDTDCCTRNCCGASRPFTLRILDNLGREVMTLERPLRCSSCCFPCCLQEIEIQAPPGVPVGYVTQTWHPCLPKFTLQNEKKQDVLKVVGPCVVCSCCSDIDFELKSLDEESVVGKISKQWSGFVREAFTDADNFGIQFPLDLDVKMKAVMLGACFLIDFMFFERTGNEEQRSGAWQ
binding [5]: binds

B2: PLSCR1-EGFP (phospholipid scramblase 1, EGFP tagged at the carboxyl terminus) (protein, UniProt O15162-1 1-318)
chain: MDKQNSQMNASHPETNLPVGYPPQYPPTAFQGPPGYSGYPGPQVSYPPPPAGHSGPGPAGFPVPNQPVYNQPVYNQPVGAAGVPWMPAPQPPLNCPPGLEYLSQIDQILIHQQIELLEVLTGFETNNKYEIKNSFGQRVYFAAEDTDCCTRNCCGPSRPFTLRIIDNMGQEVITLERPLRCSSCCCPCCLQEIEIQAPPGVPIGYVIQTWHPCLPKFTIQNEKREDVLKISGPCVVCSCCGDVDFEIKSLDEQCVVGKISKHWTGILREAFTDADNFGIQFPLDLDVKMKAVMIGACFLIDFMFFESTGSQEQKSGVW
binding [6]: binds

Further lines, with some results ahead:

binding [1]: binds
Molecule: TRPC1 (endogenous, mouse cortical neurons) (from UniProt Q61056 1-793)

binding [2]: binds | binding [1]: binds
Molecule: TRPC5 (endogenous, mouse cortical neurons) (from UniProt Q9QX29 1-975)

binding [3]: binds
Molecule: TRPC5-mCherry (transient receptor potential canonical 5, mCherry tagged at the carboxyl terminus) (from UniProt Q9QX29 1-975)
binding [4]: binds
